Reference: patent publication US6451335B1, “Formulations and methods for providing prolonged local anesthesia” (Euro-Celtique S.A., priority 1998, dated 2002)
At least one read-out could not be matched to a standard name with certainty. At least one structure is not confirmed: it was looked up by name or label, or the drawing left a doubt. Square brackets hold non-standard residues; d marks the D form. Peptide text beside a SMILES is read from it.

System: rat sciatic nerve
Assay: Duration of anesthesia of bupivacaine microspheres (LAB) with co-injected additives, hotplate foot withdrawal
Format: in vivo
Conditions: LAB 150 mg/kg perineural
Experimental: In this example, a large number of pharmaceutical agents were tested for activity in augmenting the duration of local anesthetic activity. Bupivacaine-containing microspheres at about 75% loading, by weight, were injected perineurally into rat sciatic nerve at a dose of 150 mg/kg (weight microspheres/weight rat) to dose of approximately 50 mg/nerve. For the injections, needle placement adjacent to the target nerve was optimized by intermittent electrical e stimulation of the target nerve (via the injection needle) with low amplitude current to produce limb flexion. For the injections, the microspheres were suspended in a carrier vehicle suitable for injection. While any pharmaceutically acceptable carrier vehicle is acceptable, for these experiments the carrier vehicle was 1% sodium carboxymethylcellulose and 1% Tween 80 in water.
Compounds to be tested were co-injected with bupivacaine containing microspheres (i.e., mixed as additives into the carrier vehicle) in a range of concentrations. Results are expressed as percent increase in duration relative to non-augmented durations that were obtained in the same animal model.
The duration of anesthesia was measured by the hotplate foot withdrawal method described above in Example 10 and refers to the time necessary for the animal to recover from maximal nerve latency (12 sec) to a latency of 7 seconds, approximately 50% recovery. The results are tabulated in Table 3 below as percent of control.

| Compound | Duration Anesthesia As Percent of Control (% Additive Conc. 0.1) | Duration Anesthesia As Percent of Control (% Additive Conc. 0.05) | Duration Anesthesia As Percent of Control (% Additive Conc. 0.5) |
| --- | --- | --- | --- |
| COc1cc2c(c(OC)c1OC)-c1ccc(OC)c(=O)cc1[C@@H](NC(C)=O)CC2 [Colchicine] | 677, Percent of Control |  |  |
| CC(C)C[C@H](NC(=O)[C@H](CC(C)C)NC(=O)[C@@H](Cc1c[nH]c2ccccc12)NC(=O)[C@H](Cc1ccccc1)NC(=O)[C@@H](Cc1c[nH]c2ccccc12)NC(=O)[C@H](CCC(N)=O)NC(=O)[C@H](CCC(N)=O)NC(=O)[C@@H]1CCCN1C(=O)[C@H](CCCCN)NC(=O)[C@@H]1CCCN1C(=O)[C@H](N)CCCNC(=N)N)C(N)=O [Spantide] (H-[dR]PKPQQ[dW]F[dW]LL-NH2) |  | 119% of Control | 172% of Control |
